Laboratory results from patent publication US20250242024A1.
Results are given in words; binding and its absence hold for the method and conditions named. Some entries that bind do so weakly or less than the wild type. For some assays here: Sequences can lack the tags named with a protein.

Sequences of proteins named here, by UniProt entry; tags and fusion partners are left off. Residues count along the entry.
UniProt P20138, residues 18-259: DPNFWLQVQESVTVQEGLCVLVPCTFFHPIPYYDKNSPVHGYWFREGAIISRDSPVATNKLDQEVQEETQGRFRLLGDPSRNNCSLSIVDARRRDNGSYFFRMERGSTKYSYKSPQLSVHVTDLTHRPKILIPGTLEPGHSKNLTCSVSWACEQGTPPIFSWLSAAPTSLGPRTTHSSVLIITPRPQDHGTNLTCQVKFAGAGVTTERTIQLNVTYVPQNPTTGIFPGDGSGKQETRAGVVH

What was measured:
[1] = target: recombinant CD33-Fc fusion (UniProt P20138); assay: flow cytometry; anti-CD33 VHH on transduced T cells detected with recombinant CD33-Fc fusion
[2] = target: T1, recombinant CLL1-Fc fusion (UniProt Q5QGZ9); assay: flow cytometry; anti-CLL1 VHH on transduced T cells detected with recombinant CLL1-Fc fusion
T1 sequence (looked up): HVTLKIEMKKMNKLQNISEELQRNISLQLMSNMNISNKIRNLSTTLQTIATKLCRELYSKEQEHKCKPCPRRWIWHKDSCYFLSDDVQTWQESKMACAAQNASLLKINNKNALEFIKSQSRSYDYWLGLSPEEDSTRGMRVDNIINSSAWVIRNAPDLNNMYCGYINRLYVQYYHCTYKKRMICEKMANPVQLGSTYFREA

B1: SR006 targeting component (antiCLL1.G4S.FRB.2xG4S.antiCD33.minCD4hinge.CD4tm.CD4ic) on SR006-T cells (protein)
chain: EVQLVESGGGEVQPGGSLRLSCAASGFLFSIYDMNWYRQAPGKEREWVAGITNNGYSTAYAESVKGRFTISRDNAKNTIYLQMSSLRAEDTAVYYCHADLTKAYDVEYAWGQGTLVTVKPGGGGSLWHEMWHEGLEEASRLYFGERNVKGMFEVLEPLHAMMERGPQTLKETSFNQAYGRDLMEAQEWCRKYMKSGNVKDLTQAWDLYYHVFRRISKGGGGSGGGGSEVQLVESGGGEVQPGGSLRLSCAASRSSGIDVMGWYRQAPGKERELVAEISGVGDTNYAASLADRFTVSRDNAKNTVYLQMSSLRAEDTAVYYCNAHSFLDLVGAWGQGTLVTVKPSNIKVLPTWSTPVQPMALIVLGGVAGLLLFIGLGIFFCVRCRHRRRQ
binding [1]: binds
binding [2]: binds
